In PubChem BioAssay AID1671190 (National Center for Advancing Translational Sciences (NCATS), 2021):
The campaign covered roughly 580,000 compounds. About 6,100 (1.1%) were called active. The inconclusive results got no clear call from the source; some entries with a clear call stand among them for comparison. The call rests on the fitted dose curve; in most records, active means well fitted inhibition curve with a large enough effect; inconclusive means small, poorly fitted or top-dose-only effect, or another doubt; inactive means no such curve, though single readings can be large or run the other way. A potency beside an inconclusive call is a rough fit, not a confirmed value. Some structures have more than one record in an assay (separate samples or runs), and their calls can disagree.

Sequences of proteins named here, by UniProt entry; tags and fusion partners are left off. A change or cut given only in a name is not applied to a line headed by its entry.
UniProt P18054: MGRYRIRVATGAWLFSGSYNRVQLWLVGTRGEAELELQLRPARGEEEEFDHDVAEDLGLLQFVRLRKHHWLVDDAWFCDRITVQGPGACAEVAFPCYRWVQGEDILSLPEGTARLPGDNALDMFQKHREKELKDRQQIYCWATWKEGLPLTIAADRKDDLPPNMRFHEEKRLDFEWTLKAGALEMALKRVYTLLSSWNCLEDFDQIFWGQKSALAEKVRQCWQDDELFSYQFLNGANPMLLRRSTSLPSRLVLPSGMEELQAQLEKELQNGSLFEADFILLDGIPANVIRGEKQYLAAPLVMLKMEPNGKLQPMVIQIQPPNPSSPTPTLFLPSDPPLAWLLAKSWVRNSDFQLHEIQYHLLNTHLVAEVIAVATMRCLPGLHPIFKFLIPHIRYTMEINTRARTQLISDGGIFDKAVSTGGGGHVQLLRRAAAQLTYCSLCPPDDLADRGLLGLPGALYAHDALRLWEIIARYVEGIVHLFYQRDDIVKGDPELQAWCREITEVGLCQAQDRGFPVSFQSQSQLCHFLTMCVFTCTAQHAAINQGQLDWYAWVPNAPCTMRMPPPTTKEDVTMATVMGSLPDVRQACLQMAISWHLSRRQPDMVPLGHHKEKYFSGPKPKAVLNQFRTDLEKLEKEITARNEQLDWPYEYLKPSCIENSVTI

molecular target: Polyunsaturated fatty acid lipoxygenase ALOX12 (Homo sapiens) (UniProt P18054); assay: Primary qHTS assay for inhibitors of human arachidonate 12S-lipoxygenase (ALOX12): Round 2; details: purified 12hLO, xylenol orange hydroperoxide absorbance; series mostly up to 108 µM
In short: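 Hydroperoxide product was detected by ferrous iron/xylenol orange as the 573 to 405 nm absorbance ratio. Arachidonic acid at 40 uM (final) was turned over for 30 min at room temperature by 150 nM human 12hLO, pH 7.0 Hepes buffer, after 15 min compound preincubation.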
Potency means the concentration at half of the fitted maximal effect.

Row | Compound | Potency
1 | O=c1c2ccccc2c(/C=N/n2cnnc2)c(O)n1-c1ccccc1F | inactive
2 | O=C(CCc1ncc(-c2ccc(F)cc2)o1)NCCc1ccc(F)cc1 | inconclusive: 39.8 µM [inhibitor, single point]
3 | COc1ccc(S(=O)(=O)N/N=C\c2ccc([N+](=O)[O-])o2)c(OC)c1 | inconclusive: 3.98 µM [inhibitor, single point]
4 | O=C(NC(=S)NCc1ccco1)c1ccc(Br)cc1 | active: 15.8 µM
5 | COc1ccc(CN(C)CC2CCN(CCc3ccc(F)cc3)CC2)cc1Cn1cccn1 | inconclusive: 20 µM [inhibitor, partial curve]
6 | CCc1cccc(C)c1NC(=O)CN1C(=O)NC(c2ccc(Cl)cc2)C2=C1COC2=O (stereo not drawn) | inconclusive: 15.8 µM [inhibitor, full curve]
7 | COc1ccc([C@H]2CC(=O)C=C(c3ccc(NC(C)=O)cc3)C2)cc1OC | inconclusive: 39.8 µM [inhibitor, partial curve, poor fit]
8 | C#CCOCCOCCOCCNc1nc(N2CCN(C(=O)[C@H](Cc3ccc(O)cc3)n3cc([C@@H](N)CC(C)C)nn3)CC2)nc(N2CCN(C(=O)[C@H](Cc3cc4ccccc4[nH]3)n3cc([C@@H](N)CC(C)C)nn3)CC2)n1 | inconclusive: 79.4 µM [inhibitor, single point]
9 | CC(=O)[C@@]1(O)Cc2c(O)c3c(c(O)c2[C@H](O[C@H]2C[C@H](N)[C@H](O)[C@H](C)O2)C1)C(=O)c1ccccc1C3=O | inconclusive: 89.1 µM [inhibitor, partial curve, poor fit]
10 | COc1ccc(CN2C(=O)CO[C@H](c3ccc(NC(=O)Cc4ccccc4)cc3)[C@H]2CO)cc1 | inactive
11 | CN1C(=O)c2ccccc2C(C(=O)O)C1c1cccc(F)c1 (stereo not drawn) | inactive
12 | O=C(COC(=O)c1ccc2ccccc2n1)Nc1ccc(Cl)c(Cl)c1 | inconclusive: 0.447 µM [inhibitor, full curve, poor fit]
13 | C=CCn1c(-c2cc(OC)cc(OC)c2)n[nH]c1=S | inconclusive: 5.01 µM [inhibitor, full curve, poor fit]
14 | COc1ccc(CCCc2nnc(SCC(=O)Nc3ccc(C)cc3)o2)cc1C | active: 17.8 µM
15 | O=C(NCc1ccc(-n2cccn2)cc1)c1ccc(F)cc1Br | inactive
16 | CC(=O)Nc1cc(F)ccc1-c1csc(NC(=O)CCc2ccccc2)n1 | inactive
17 | O=C(Nc1ccc([N+](=O)[O-])cn1)c1cc(-c2cccc(Br)c2)nc2ccccc12 | inactive
18 | C=C(C)[C@H]1CC=C(CO)CC1 | inconclusive: 112 µM [inhibitor, single point]
19 | CC1CN(CCOc2ccc(C#N)cc2)CCO1 (stereo not drawn) | inactive
20 | Cc1ccc(NC(=O)Cn2ccn3nc4c(c3c2=O)CCCCC4)c(C)c1 | inconclusive: 17.8 µM [inhibitor, full curve]
21 | O=[S+]([O-])(c1cccc(C(F)(F)F)c1)N1CCN(c2nc3ncccc3o2)CC1 | inconclusive: 79.4 µM [inhibitor, partial curve, poor fit]
22 | N#C/C(=C/c1ccncc1)c1nc2ccccc2s1 | inactive

As entered above.
For Potency, `C=CCn1c(-c2cc(OC)cc(OC)c2)n[nH]c1=S` has the entry inconclusive: 5.01 µM [inhibitor, full curve, poor fit]
For Potency, `COc1ccc(CCCc2nnc(SCC(=O)Nc3ccc(C)cc3)o2)cc1C` has the entry active: 17.8 µM

Next entries follow:

Row | Compound | Potency
23 | COc1ccccc1NC(=O)c1ccccc1NC(=O)c1cc(Cl)ccc1NC(=O)c1ccco1 | inconclusive: 31.6 µM [inhibitor, partial curve, poor fit]
24 | Cc1ccc2c(c1)NC(=O)C(CC(=O)NCCCN1CCc3ccccc3C1)O2 (stereo not drawn) | inconclusive: 20 µM [inhibitor, partial curve, poor fit]
25 | Clc1ccc2nc(-c3cccc(SC4CCCCC4)c3)c(NCc3ccccc3)n2c1 | inconclusive: 70.8 µM [inhibitor, partial curve, poor fit]
26 | CCC(C(=O)NCCc1cc(OC)ccc1OC)n1nc(C)c2c(C)n(-c3ccccc3)nc2c1=O (stereo not drawn) | inactive
27 | CC(Sc1nc(=O)cc(N)n1CCc1ccccc1)C(=O)Nc1cccc(Cl)c1 (stereo not drawn) | inconclusive: 100 µM [inhibitor, partial curve, poor fit]
28 | COc1ccc(Cl)cc1NC(=O)Cn1c(=O)cc(C(=O)N2CCCC2)c2ccccc21 | inconclusive: 28.2 µM [inhibitor, partial curve, poor fit]
29 | Cc1ccc(NC(=O)c2sc3nc(-c4ccc(C)cc4)ccc3c2N)cc1 | inactive
30 | Cc1cc(O)c(/C=N/Nc2ccc(Cl)cc2)c(=O)o1 | inconclusive: 1.58 µM [inhibitor, full curve, poor fit]
31 | Cc1cc(=O)n(CNC(=O)c2ccccc2)c(=S)[nH]1 | inconclusive: 56.2 µM [inhibitor, partial curve, poor fit]
32 | O=c1[nH]c(SCc2ccccc2)nc2c1sc1ccccc12 | inconclusive: 50.1 µM [inhibitor, partial curve, poor fit]
33 | Cc1cc(C)cc(C(=O)NC(=S)Nc2ccc(Cc3ccncc3)cc2)c1 | active: 44.7 µM
34 | O=C(N=C1N=C2C=CC=CN2Cc2ccccc21)c1ccc(S(=O)(=O)N2CCCC2)cc1 | inactive
35 | CC(=O)Oc1ccc(N(C(C)=O)S(=O)(=O)c2ccccc2)c2ccccc12 | inactive
36 | O=C(NCc1ccco1)c1nn(Cc2ccccc2)c(=O)c2ccccc12 | inactive
37 | CC(C)Sc1nc(-c2ccccc2)cc(=O)[nH]1 | inconclusive: 126 µM [inhibitor, partial curve, poor fit]
38 | C[C@@H]1C(c2ccc(F)cc2)=NN(c2ccccc2)[C@H]1C(=O)N1CCOC1=O | inactive
39 | CCC1(C)NC(=O)N(NC(=O)CCc2c[nH]c3ccccc23)C1=O (stereo not drawn) | inactive
40 | CN1C2CCC1/C(=C/c1cccn1C)C(=O)/C2=C\c1cccn1C | inconclusive: 15.8 µM [inhibitor, partial curve]
41 | CN(C)c1ccc(P(=O)(Nc2ccc([N+](=O)[O-])cc2)N2CCOCC2)c(NC(=O)c2cccs2)c1 (stereo not drawn) | inconclusive: 44.7 µM [inhibitor, partial curve, poor fit]
42 | N#Cc1ccc(NC(=O)C2CC(c3ccccc3F)=NO2)cc1 (stereo not drawn) | inactive
43 | CC(C)(C)OC(=O)N1CCN(C(C(=O)O)c2c[nH]c3ccccc23)CC1 (stereo not drawn) | inconclusive: 44.7 µM [inhibitor, partial curve, poor fit]
